# Test results from PubChem BioAssay AID651744 (Broad Institute, 2012).
# Out of some 5,600 compounds screened, about 3,100 (55%) were called active. The set was probably picked from earlier hits. The inconclusive results got no clear call from the source; some entries with a clear call stand among them for comparison.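 How the source made its calls: active means mean loss of cell viability signal at or above a set limit, and enough replicates individually reaching it; inconclusive means meets only the mean limit or only the replicate share; inactive means meets neither condition.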
# Assay: NIH/3T3 fibroblast cytotoxicity, confirmation, cytotoxicity control, cell-based, cherry-pick, single point, set 2 (AID 651744);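 further: 0% = median of neutral control wells and 100% = median of positive control wells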
# Details: NIH/3T3 viability, CellTiter-Glo ATP luminescence, 90 h; at 24.9 µM; active compounds read high
row,SMILES,inhibition
1,CC(C)CC#Cc1ccc2c(c1)O[C@H](CN(C)C(=O)C1CCCCC1)[C@@H](C)CN([C@H](C)CO)S2(=O)=O,active: 105%
2,Cc1ccccc1S(=O)(=O)N(C)C[C@H]1OCc2ccccc2-c2c(n(C)c3ccccc23)C(=O)N([C@@H](C)CO)C[C@@H]1C,inconclusive: 20.7%
3,COc1ccc(S(=O)(=O)N(C)C[C@@H]2OCCCC[C@H](C)Oc3ccc(NC(=O)C4CCCCC4)cc3C(=O)N([C@H](C)CO)C[C@H]2C)cc1,inconclusive: 32%
4,CN(C)c1ccc2c(c1)[C@@H]1C[C@H](CC(=O)NCc3ccc(Oc4ccccc4)cc3)O[C@H](CO)[C@@H]1O2,inconclusive: 26.3%
5,Cc1noc(C)c1S(=O)(=O)N(C)C[C@H]1OCCCC[C@@H](C)Oc2ccc(NS(=O)(=O)c3ccc(Cl)cc3)cc2C(=O)N([C@@H](C)CO)C[C@@H]1C,inactive: 18.8%
6,C[C@H]1CN([C@@H](C)CO)C(=O)c2cccc(NC(=O)Nc3cccc4ccccc34)c2O[C@H]1CN(C)C(=O)Nc1ccc(F)cc1,inconclusive: 22.7%
7,CN(C)C(=O)c1cccc(-c2ccc3c(c2)[C@@H]2[C@@H](CCN2C(=O)c2cnccn2)[C@H](CO)N3)c1,inactive: -14.2%
8,C/C=C/c1cnc2c(c1)C(=O)N([C@H](C)CO)C[C@@H](C)[C@@H](CN(C)Cc1ccc(F)cc1)O2,inconclusive: 28.5%
9,COc1cccc(C#Cc2ccc3c(c2)O[C@@H](CN(C)S(=O)(=O)c2ccccc2F)[C@@H](C)CN([C@H](C)CO)S3(=O)=O)c1,inconclusive: 19.2%
10,COc1ccc(NC(=O)N2CCCCN3[C@H](CO)[C@H](c4ccc(C5=CCCC5)cc4)[C@@H]3C2)cc1,inconclusive: 20.6%
11,COc1ccc(C#Cc2ccc([C@@H]3[C@@H](CO)N4CCCCN(C(=O)c5ccncc5)C[C@@H]34)cc2)cc1,active: 97.5%
12,C[C@H](CO)N1C[C@H](C)[C@H](CN(C)S(=O)(=O)c2ccc(Cl)cc2)Oc2ccc(NS(=O)(=O)c3ccc(F)cc3)cc2C1=O,inconclusive: 7.64%
13,CCc1cnc(N2[C@H](C#N)[C@H](c3ccc(C#Cc4ccccc4F)cc3)[C@@H]2CO)s1,inactive: -11%
14,CC(C)c1ccc(NC(=O)C[C@H]2CC[C@H]3[C@@H](COc4ccc(NC(=O)Nc5ccc(F)c(F)c5)cc4C(=O)N3C)O2)cc1,inconclusive: 59%
15,O=C(C1CCC1)N1CCCCN2[C@@H](CO)[C@H](c3ccc(-c4ccncc4)cc3)[C@@H]2C1,inconclusive: 20.5%
16,CC=Cc1ccc2n(c1=O)C[C@@H]1[C@@H](CO)[C@H](C(=O)NCCC)[C@H]2N1C(=O)c1ccccc1F (mixture of isomers),inactive: 4.49%
17,O=C(Nc1ccccc1)N1CCCCN2[C@H](C1)[C@H](c1ccc(-c3ccccc3F)cc1)[C@@H]2CO,inconclusive: 21.8%
18,C[C@H]1CN([C@@H](C)CO)C(=O)c2cccc(NC(=O)c3cnccn3)c2O[C@@H]1CN(C)Cc1ccc(C(=O)Nc2ccccc2N)cc1,inconclusive: 38.2%
19,O=C(c1ccccn1)N1CC[C@@H]2[C@H](CO)Nc3ccc(C#Cc4cccnc4)cc3[C@@H]21,inconclusive: 23.1%
20,C[C@H]1CN([C@@H](C)CO)S(=O)(=O)c2ccc(C#CC3CC3)cc2O[C@H]1CN(C)C(=O)Nc1cc(F)ccc1F,inactive: 11.6%
21,O=C(C[C@@H]1C[C@@H]2c3cc(NS(=O)(=O)c4ccc(F)cc4)ccc3O[C@@H]2[C@@H](CO)O1)N1CCc2ccccc2C1,inactive: 13.2%
22,CN1C(=O)c2cc(NC(=O)c3cccc(Cl)c3)ccc2OC[C@@H]2O[C@@H](CC(=O)NC3CCCCC3)CC[C@H]21,inconclusive: 50.6%
23,CC(C)C#Cc1ccc2c(c1)O[C@@H](CN(C)Cc1ccncc1)[C@@H](C)CN([C@H](C)CO)S2(=O)=O,inconclusive: 38.7%
24,C[C@H]1CN([C@@H](C)CO)C(=O)c2cccc(NC(=O)c3nc4ccccc4s3)c2O[C@@H]1CN(C)Cc1ccc(C(=O)Nc2ccccc2N)cc1,inconclusive: 20.3%
25,C[C@@H]1CCCCO[C@@H](CN(C)S(=O)(=O)c2ccc(Cl)cc2)[C@@H](C)CN([C@@H](C)CO)C(=O)c2cc(NC(=O)C3CCCCC3)ccc2O1,inconclusive: 70.1%
26,COc1ccc(NC(=O)N(C)C[C@@H]2Oc3cc(C#CCC(C)C)ccc3S(=O)(=O)N([C@@H](C)CO)C[C@@H]2C)cc1,active: 95.9%
27,C[C@H](CO)N1C[C@H](C)[C@H](CN(C)Cc2cccnc2)Oc2cc(C#CCN(C)C)ccc2S1(=O)=O,inconclusive: 31.9%
28,Cc1cc(C(=O)Nc2cccc3c2O[C@@H](CN(C)Cc2ccc(C(F)(F)F)cc2)[C@@H](C)CN([C@@H](C)CO)C3=O)n(C)n1,inconclusive: 27.5%

# Some values from above.
# inhibition, CC(C)CC#Cc1ccc2c(c1)O[C@H](CN(C)C(=O)C1CCCCC1)[C@@H](C)CN([C@H](C)CO)S2(=O)=O reads active: 105%
# inhibition, CN(C)C(=O)c1cccc(-c2ccc3c(c2)[C@@H]2[C@@H](CCN2C(=O)c2cnccn2)[C@H](CO)N3)c1 reads inactive: -14.2%

# (continued)

row,SMILES,inhibition
1,O=C(Nc1cccc(F)c1)N1CCCCN2[C@H](CO)[C@H](c3ccc(-c4ccncc4)cc3)[C@@H]2C1,inactive: 8.42%
2,C[C@H](CO)N1C[C@H](C)[C@H](CN(C)Cc2ccncc2)Oc2cc(-c3ccncc3)ccc2S1(=O)=O,inconclusive: 16.2%
3,COc1ccc(-c2cnc3c(c2)C(=O)N([C@@H](C)CO)C[C@H](C)[C@@H](CN(C)S(=O)(=O)c2ccc(OC)cc2)O3)cc1,inconclusive: 32.2%
4,OC[C@H]1[C@@H](c2ccc(C#CC3(O)CCCC3)cc2)[C@@H]2CN(Cc3cccnc3)CCCCN12,inconclusive: 29.8%
5,C[C@@H]1CCCCO[C@H](CN(C)C(=O)Nc2ccc(C(F)(F)F)cc2)[C@@H](C)CN([C@@H](C)CO)C(=O)c2cc(NC(=O)Cc3ccccc3)ccc2O1,inconclusive: 20.6%
6,C[C@@H]1CN([C@H](C)CO)C(=O)c2cccc(NC(=O)C3CCOCC3)c2O[C@H]1CN(C)C(=O)Nc1cccc2ccccc12,inconclusive: 23.1%
7,Cc1noc(C)c1S(=O)(=O)N(C)C[C@@H]1OCCCC[C@@H](C)Oc2ccc(NC(=O)Nc3cccc4ccccc34)cc2C(=O)N([C@H](C)CO)C[C@H]1C,inconclusive: 25.9%
8,C[C@H]1CN([C@@H](C)CO)S(=O)(=O)c2ccc(C#CC3CC3)cc2O[C@@H]1CN(C)C(=O)c1ccccc1,inconclusive: 50.9%
9,CCc1cnc(N2[C@H](C#N)[C@H](c3ccc(C#CCC4CCCC4)cc3)[C@@H]2CO)s1,inconclusive: 21.9%
10,C[C@@H]1CCCCO[C@H](CN(C)C(=O)Nc2ccc(C(F)(F)F)cc2)[C@@H](C)CN([C@@H](C)CO)C(=O)c2cc(NC(=O)Nc3ccc(C(F)(F)F)cc3)ccc2O1,inconclusive: 29.8%
11,CO[C@@H](CN(C)S(=O)(=O)c1ccc(F)cc1)[C@@H](C)CN(Cc1ccccc1Cl)[C@H](C)CO,inconclusive: 34.1%
12,O=C(C[C@H]1C=C[C@@H](NC(=O)C2CC2)[C@@H](CO)O1)Nc1nccs1,inactive: -1.28%
13,CC(C)NC(=O)Nc1ccc2c(c1)C(=O)N([C@H](C)CO)C[C@H](C)[C@H](CN(C)C(=O)Nc1ccc(C(F)(F)F)cc1)OCCCC[C@@H](C)O2,inconclusive: 37.8%
14,O=C(C[C@@H]1CC[C@@H]2[C@H](COC[C@@H](O)CN2Cc2cccc(C(F)(F)F)c2)O1)NCc1ccc(Cl)cc1,inconclusive: 28.7%
15,Cc1ccc(S(=O)(=O)N2CC[C@@H]3[C@@H](CO)Nc4ccc(C#Cc5cccc(F)c5)cc4[C@@H]32)cc1,active: 56.7%
16,C[C@H]1CN([C@@H](C)CO)C(=O)c2cccc(NC(=O)c3ccncc3)c2O[C@H]1CN(C)Cc1ccc2c(c1)OCO2,inconclusive: 34.4%
17,COc1ccc(S(=O)(=O)N(C)C[C@@H]2OCCCC[C@H](C)Oc3ccc(NS(=O)(=O)c4ccc(F)cc4)cc3C(=O)N([C@@H](C)CO)C[C@H]2C)cc1,inactive: 4.85%
18,C[C@@H]1CCCCO[C@H](CN(C)Cc2ccc(C(F)(F)F)cc2)[C@@H](C)CN([C@H](C)CO)C(=O)c2cc(NC(=O)Nc3cccc4ccccc34)ccc2O1,inactive: 5.8%
19,CCCC#Cc1ccc([C@@H]2[C@@H](CO)N3CCCCN(Cc4ccncc4)C[C@H]23)cc1,active: 66.8%
20,O=C(C[C@@H]1C[C@@H]2c3cc(NS(=O)(=O)c4ccc(F)cc4)ccc3O[C@@H]2[C@H](CO)O1)NCc1ccc(Oc2ccccc2)cc1,inactive: 11.3%
21,N#C[C@H]1[C@@H](c2ccc(-c3ccccc3F)cc2)[C@@H](CO)N1C(=O)C1CC1,inconclusive: 22.8%
22,C[C@H](CO)N1C[C@H](C)[C@H](CN(C)Cc2ccc(Oc3ccccc3)cc2)Oc2c(NC(=O)Nc3cccc4ccccc34)cccc2C1=O,inconclusive: 18.8%
23,C[C@H](CO)N1C[C@H](C)[C@H](CN(C)S(=O)(=O)c2ccc(Cl)cc2)OCCCC[C@H](C)Oc2ccc(NC(=O)Nc3cccc4ccccc34)cc2C1=O,inconclusive: 22.7%
24,COc1ccc(NC(=O)Nc2ccc3c(c2)C(=O)N([C@@H](C)CO)C[C@H](C)[C@@H](CN(C)C(=O)Nc2ccc(C(F)(F)F)cc2)OCCCC[C@H](C)O3)cc1,inactive: 13.4%
25,C[C@@H]1CN([C@@H](C)CO)C(=O)c2cc(NS(=O)(=O)c3ccc(Cl)cc3)ccc2O[C@@H](C)CCCCO[C@H]1CN(C)CC1CC1,inactive: 15%
26,C[C@@H]1CCCCO[C@H](CN(C)Cc2ccc(Cl)c(Cl)c2)[C@H](C)CN([C@@H](C)CO)C(=O)c2cc(NC(=O)Nc3ccc(F)cc3)ccc2O1,inconclusive: 40.6%
27,COc1cccc(C#Cc2ccc3c(c2)O[C@@H](CN(C)S(=O)(=O)c2ccccc2F)[C@H](C)CN([C@H](C)CO)S3(=O)=O)c1,active: 44.7%
